According to PubChem BioAssay AID758 (NMMLSC, 2007):
About 110 (0.058%) of roughly 190,000 compounds were called active. This list was built around the results that the source calls inconclusive (neither active nor inactive); the mix of calls is not that of the screen.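 How the source made its calls: active means fluorescent GTP binding to Rab7 beads changed by at least 20 points from the 100% baseline, either direction, mostly lower; inconclusive means compound itself probably fluorescent, or too few beads counted; inactive means the rest.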

The compounds below were run on Rab7 GTPase wild type (dog), Bodipy-FL-GTP binding (assay: modulators of GTP binding to Rab7, primary screen, biochemical, wildtype, multiplex bead flow cytometry (AID 758;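 further: median green fluorescence of bound Bodipy-FL-GTP per Rab7 bead population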)). Details: GST-Rab7 beads, fluorescent GTP binding, at 10 µM, actives lie on both sides, untreated = 100%, excess cold GTP = 0%.
In the case of O=C(COc1cccnc1[N+](=O)[O-])Nc1cccc(S(=O)(=O)N2CCCCC2)c1, the GTP binding activity (percent of control) is reported as inactive: 100%.
With O=C(N1CCCCC1)N1CCN(C(c2ccccc2)c2ccccc2)CC1 the GTP binding activity (percent of control) was inconclusive: 101%.
With CCCCCC(=O)NNC(=O)c1ccc(F)cc1 the GTP binding activity (percent of control) was inactive: 94%.
O=S(=O)([N-]c1nc2ccccc2nc1-[n+]1ccc(-c2ccncc2)cc1)c1ccccc1 was tested, and the GTP binding activity (percent of control) was inactive: 93%.
In the case of COc1ccc(-n2c(=S)[nH]c3cc(C(=O)NCCCN4CCCC4=O)ccc3c2=O)cc1, the GTP binding activity (percent of control) is reported as inconclusive: 96%.
In the case of N#CCCN(CCC#N)c1nncs1, the GTP binding activity (percent of control) is reported as inconclusive: 104%.
O=C(O)c1cc([N+](=O)[O-])ccc1NCc1ccccc1Cl was tested, and the GTP binding activity (percent of control) was inactive: 114%.
In the case of O=c1c2cccnc2[nH]c(=S)n1CCC1=CCCCC1, the GTP binding activity (percent of control) is reported as inconclusive: 95%.
Cc1ccsc1C(=O)N1CCC(N2CCC(C(=O)NCC3CCCO3)CC2)CC1 (stereo unspecified) was tested, and the GTP binding activity (percent of control) was inactive: 95%.
CC(C)c1nc(-c2ccccc2)c(-c2ccccc2)[nH]1 was tested, and the GTP binding activity (percent of control) was inconclusive: 103%.
With O=C(O)c1ccccc1C(=O)NNc1cccc(Cl)n1 the GTP binding activity (percent of control) was inactive: 90%.
With O=C(NC1CCCc2ccccc21)C1CCC(CNS(=O)(=O)c2cccc3nsnc23)CC1 (stereo unspecified) the GTP binding activity (percent of control) was inconclusive: 104%.
In the case of O=C(NN=C1C2CC3CC(C2)CC1C3)c1cccc(S(=O)(=O)N2CCOCC2)c1, the GTP binding activity (percent of control) is reported as inactive: 94%.
O=C(Nc1ccccc1)C1CCCN1C(=O)Nc1ccccc1[N+](=O)[O-] (stereo unspecified) was tested, and the GTP binding activity (percent of control) was inconclusive: 95%.
In the case of Cc1cc(C)cc(-n2c(C)cc(/C=N\NC(=O)COc3cccc4cccnc34)c2C)c1, the GTP binding activity (percent of control) is reported as inconclusive: 92%.
For Cc1ccc(NC(=O)CN2C(=O)N/C(=C/c3cc(C)n(-c4cccc(C(=O)O)c4)c3C)C2=O)cc1, the GTP binding activity (percent of control) was inconclusive: 87%.
In the case of Cn1nc(C(=O)Nc2cccnc2)c2ccccc2c1=O, the GTP binding activity (percent of control) is reported as inactive: 92%.
In the case of Cc1ccc(C(C(=O)NC(C)(C)C)N(Cc2cccnc2)C(=O)C(=O)NC2CCCCC2)o1 (stereo unspecified), the GTP binding activity (percent of control) is reported as inactive: 98%.
With CCOC(=O)c1nn(-c2cccc(OC)c2)c2nc(Nc3ccccc3)cc(=O)n12 the GTP binding activity (percent of control) was inconclusive: 103%.
With O=C(COc1ccc(Cl)cc1)N1CCN(C(=O)c2cccs2)CC1 the GTP binding activity (percent of control) was inactive: 106%.
For O=C(CS(=O)(=O)c1c[nH]c2ccccc12)N1CCc2ccccc21, the GTP binding activity (percent of control) was inactive: 102%.
With Cc1ccc(CN(C(=O)Cn2nnc3ccccc32)C(C(=O)NCc2ccco2)c2cccs2)cc1 (stereo unspecified) the GTP binding activity (percent of control) was inconclusive: 92%.
In the case of COC(=O)c1ccccc1NC(=O)CSCC(=O)Nc1ccccc1OC, the GTP binding activity (percent of control) is reported as active: 76%.
With C/C(CCc1ccc2c(c1)OCO2)=N\N=C1\NC(=O)CC(C(=O)Nc2ccccc2)S1 (stereo unspecified) the GTP binding activity (percent of control) was inconclusive: 107%.
CC(=O)c1c(C)nc(-c2ccccc2)n1O was tested, and the GTP binding activity (percent of control) was inconclusive: 99%.
In the case of CCCCOc1ccc(C(=O)N/N=C/c2cn[nH]c2-c2ccc(OC)c(OC)c2)cc1, the GTP binding activity (percent of control) is reported as inconclusive: 96%.
In the case of CCOC(=O)c1c(NC(=O)COC(=O)Cn2c(C)nc3ccccc32)sc2c1CCCC2, the GTP binding activity (percent of control) is reported as inconclusive: 99%.
For O=C(Nc1cccc2nsnc12)c1ccc(F)cc1, the GTP binding activity (percent of control) was inconclusive: 99%.
For COc1ccc(-c2nnn(CC(=O)N(CCCN3CCOCC3)C(C(=O)NC3CCCC3)c3ccco3)n2)cc1 (stereo unspecified), the GTP binding activity (percent of control) was inactive: 96%.
In the case of CN1C2CCC1/C(=C\c1ccccc1)C(=O)/C2=C\c1ccccc1, the GTP binding activity (percent of control) is reported as inconclusive: 106%.
With COc1ccc(CCNC(=O)Cn2nc(C(=O)O)c3ccccc3c2=O)cc1OC the GTP binding activity (percent of control) was inconclusive: 99%.
In the case of CCCCCCC1CCC(c2nc(-c3ccncc3)no2)CC1 (stereo unspecified), the GTP binding activity (percent of control) is reported as inactive: 95%.
In the case of CCCn1nc(Oc2nc(NCC)nc(NC(C)C)n2)ccc1=O, the GTP binding activity (percent of control) is reported as inconclusive: 100%.
For CCCCCC(=O)Nc1ccc(-c2csc(N)n2)cc1, the GTP binding activity (percent of control) was inactive: 108%.
Cn1c(CCNC(=O)c2cccs2)nnc1SCC(=O)Nc1nc(-c2ccccc2)cs1 was tested, and the GTP binding activity (percent of control) was inconclusive: 101%.
With CCOC(=O)CCNC(=O)Nc1ccc2nc(C)n(Cc3ccc(Cl)cc3)c(=O)c2c1 the GTP binding activity (percent of control) was inconclusive: 102%.
In the case of CCn1c(NC(=S)Nc2ccccc2)nc2ccccc21, the GTP binding activity (percent of control) is reported as inconclusive: 107%.
For CCN(CC)S(=O)(=O)c1cccc(-c2nnc(SCC(=O)NC3CCCC3)n2N)c1, the GTP binding activity (percent of control) was inconclusive: 97%.
With O=C(Nc1ccc2c(c1)OCO2)c1cc2ncc(Br)cn2n1 the GTP binding activity (percent of control) was inconclusive: 98%.
COc1ccccc1NS(=O)(=O)c1cccc(NC(=O)c2cc3ccccc3oc2=O)c1 was tested, and the GTP binding activity (percent of control) was inactive: 94%.
CCN(CC(=O)Nc1cccc(C#N)c1)CC(=O)Nc1cccc(OC)c1 was tested, and the GTP binding activity (percent of control) was inconclusive: 92%.
COc1cc(NS(=O)(=O)c2ccc(NC(=O)/C(=C/c3ccccc3Cl)NC(=O)c3ccccc3)cc2)nc(OC)n1 was tested, and the GTP binding activity (percent of control) was inconclusive: 94%.
In the case of CCOC(=O)C(C)c1ccc2cc(OC)ccc2c1 (stereo unspecified), the GTP binding activity (percent of control) is reported as inactive: 95%.
With CN1CC(=O)N(CC(=O)Nc2ccc(Cl)c(C(F)(F)F)c2)C1=O the GTP binding activity (percent of control) was inconclusive: 110%.
With N#CC(C#N)=C1C=CC=CN1/C(=C\c1ccccc1Cl)C(=O)c1ccccc1 the GTP binding activity (percent of control) was inactive: 97%.
With COc1cccc(N2CCN(C3CCCC(C)C3)CC2)c1 (stereo unspecified) the GTP binding activity (percent of control) was inconclusive: 98%.
